Data taken from article PMC11758708, “Natural variation in MdNAC5 contributes to fruit firmness and ripening divergence in apple”.
Residue numbers refer to the chain shown, from its start. For some assays here: A weaker result is weaker than the reference pair of the same experiment. Tags and fusion partners may be left off the protein sequences shown. For at least one entry, the source does not settle the construct or the ends of the probe. At least one verdict was read from the data and is not stated in words by the source.

What was measured:
[1] = molecular target: T1, MdNAC5A (Malus x domestica (Fuji / Cripp's Pink)) (UniProt A0A498K6T8); assay: EMSA; details: EMSA/Gel-Shift Kit (Beyotime) per instructions; pH and temperature not stated; recombinant protein; protein details: His (pET-32a); label: 3' biotin (both strands)
T1 sequence (looked up, limits assumed): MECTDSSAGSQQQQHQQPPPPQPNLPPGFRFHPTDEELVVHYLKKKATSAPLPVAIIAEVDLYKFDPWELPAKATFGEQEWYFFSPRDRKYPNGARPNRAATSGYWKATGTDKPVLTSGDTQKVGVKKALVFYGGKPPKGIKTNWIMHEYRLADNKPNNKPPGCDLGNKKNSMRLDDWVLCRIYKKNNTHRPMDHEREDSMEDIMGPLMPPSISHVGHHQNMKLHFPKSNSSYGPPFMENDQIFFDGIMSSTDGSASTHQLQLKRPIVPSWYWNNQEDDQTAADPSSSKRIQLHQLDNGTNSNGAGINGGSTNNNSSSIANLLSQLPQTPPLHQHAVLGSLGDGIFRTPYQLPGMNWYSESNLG

[2] = molecular target: T2, MdNAC5T M173L (Malus x domestica (Fuji / Cripp's Pink)) (UniProt A0A498K6T8); assay: EMSA; details: binds, weaker than MdNAC5A; EMSA/Gel-Shift Kit (Beyotime) per instructions; pH and temperature not stated; recombinant protein; protein details: His (pET-32a); label: 3' biotin (both strands)
T2 sequence (looked up, limits assumed): T1 sequence (looked up, limits assumed) with M173L

Row | Sequence | binding result [1] | binding result [2]
1 | AAATAATATCAAAGCCATGTGAACTGAGTTGGTCCA (double strand) [MdERF3p2 probe] | binds | binds more weakly
2 | ACAAATTTTGTAAGTCATGTGATGTGTCACGAATCG (double strand) [MdERF3p1 probe] | binds | binds more weakly
3 | CCTGTGACAATATTACATGTGGCATGTCAATTGAGA (double strand) [MdACS1 probe] |  | binds more weakly
